Data as given in patent US20210087263A1.
These are yes or no findings as the source states them, for the method shown. Some results given as binding are weak or reduced against the parent protein; the word gives no strength.

T1: recombinant cynomolgus monkey CXCL13 (cynomolgus monkey)
T1 sequence: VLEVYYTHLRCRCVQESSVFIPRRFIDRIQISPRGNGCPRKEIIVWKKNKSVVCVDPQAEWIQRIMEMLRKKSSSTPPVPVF

B1: 3D2 (antibody, mouse IgG1, V domains shown)
VH: EVQLQESGPGILQPSQTLNLTCSFSGFSLSTFGMGVGWIRQPSGKGLEWLAHIWWDDDRRYNPALKSRLTISKETSKNQVFLKIANVDTADTATYYCTRIAGYYGSRDWFAYWGQGTTVTVSS
VL: DIVLTQSPASLAVSLGQRATISCRASESVDNSGISFMHWYQQKPGQPPKLLIFRASDLESGIPARFSGSGSRTDFTLTVNPVETDDVATYFCQQSNKDPWTFGGGTKLEIK
B2: MAb 1476 (antibody, V domains shown)
VH: EVQLQESGPGILQPSQTLNLTCSFSGFSLSTFGMGVGWIRQPSGKGLEWLAHIWWDDDRRYNPALKSRLTISKETSKNQVFLKIANVDTADTATYYCTRIAGYYGSRDWFAYWGQGTTVTVSS
VL: DIVLTQSPASLAVSLGQRATISCRASESVDNSGISFMHWYQQKPGQPPKLLIFRASDLESGIPARFSGSGSRTDFTLTVNPVETDDVATYFCQQSNKDPWTFGGGTKLEIK
B3: MAb 5261 (antibody, V domains shown)
VH: QVQLQESGPGLVKPSETLSLTCTVSGFSLSTFGMGVGWIRQPPGKGLEWIAHIWWDDDRRYNPALKSRVTISKDTSKNQFSLKLSSVTAADTAVYYCARIAGYYGSRDWFAYWGQGTTVTVSS
VL: DIQMTQSPSSLSASVGDRVTITCRASESVDNMGISFMHWYQQKPGKAPKLLIFRASDLESGVPSRFSGSGSGTDFTLTISSLQPEDFATYYCQQSNKDPWTFGQGTKLEIK
B4: MAb 5378 (antibody, V domains shown)
VH: QVQLQESGPGLVKPSETLSLTCTVSGFSLSTFGMGVGWIRQPPGKGLEWIAHIWWDDDRRYNPALKSRVTISKDTSKNQFSLKLSSVTAADTAVYYCARIAGYYGSRDWFAYWGQGTTVTVSS
VL: DIQMTQSPSSLSASVGDRVTITCRASESVDNMGISFMHWYQQKPGKAPKLLIFRASDLESGVPSRFSGSGSGTDFTLTISSLQPEDFATYYCQQSNKDPWTFGQGTKLEIK
B5: MAb 5080 (antibody, V domains shown)
VH: QVQLQESGPGLVKPSETLSLTCTVSGFSLSTFGMGVGWIRQPPGKGLEWIAHIWWDDDRRYNPALKSRVTISKDTSKNQFSLKLSSVTAADTAVYYCARIAGYYGSRDWFAYWGQGTTVTVSS
VL: DIQMTQSPSSLSASVGDRVTITCRASESVDNSGISFMHWYQQKPGKAPKLLIFRASDLESGVPSGFSGSGSRTDFTLTISSLQPEDFATYYCQQSNKDPWTFGQGTKLEIK

The binders below were run against T1, recombinant cynomolgus monkey CXCL13 (cynomolgus monkey) (assay: specificity ELISA, chemokine coated on plate).

binding, binds:
B1

Each binder was assayed against T1, recombinant cynomolgus monkey CXCL13 (cynomolgus monkey) (assay: specificity ELISA, chemokine coated at 100 nM).

binding, binds:
B1
B2
B3
B4
B5
